# In the supplement of paper PMC6411743:
# The chains behind the UniProt entries cited, without tags or fusion partners. Where a name states a change or a piece, a line headed by the entry shows the natural chain unless it says otherwise.
# UniProt Q8NHG8: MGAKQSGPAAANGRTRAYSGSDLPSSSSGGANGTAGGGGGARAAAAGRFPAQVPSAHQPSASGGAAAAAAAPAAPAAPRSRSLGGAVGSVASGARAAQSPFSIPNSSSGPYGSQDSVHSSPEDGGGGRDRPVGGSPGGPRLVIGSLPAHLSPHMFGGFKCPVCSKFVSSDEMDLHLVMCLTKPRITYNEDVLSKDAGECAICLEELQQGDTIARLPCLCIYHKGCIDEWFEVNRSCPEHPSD
# UniProt Q8IWJ2: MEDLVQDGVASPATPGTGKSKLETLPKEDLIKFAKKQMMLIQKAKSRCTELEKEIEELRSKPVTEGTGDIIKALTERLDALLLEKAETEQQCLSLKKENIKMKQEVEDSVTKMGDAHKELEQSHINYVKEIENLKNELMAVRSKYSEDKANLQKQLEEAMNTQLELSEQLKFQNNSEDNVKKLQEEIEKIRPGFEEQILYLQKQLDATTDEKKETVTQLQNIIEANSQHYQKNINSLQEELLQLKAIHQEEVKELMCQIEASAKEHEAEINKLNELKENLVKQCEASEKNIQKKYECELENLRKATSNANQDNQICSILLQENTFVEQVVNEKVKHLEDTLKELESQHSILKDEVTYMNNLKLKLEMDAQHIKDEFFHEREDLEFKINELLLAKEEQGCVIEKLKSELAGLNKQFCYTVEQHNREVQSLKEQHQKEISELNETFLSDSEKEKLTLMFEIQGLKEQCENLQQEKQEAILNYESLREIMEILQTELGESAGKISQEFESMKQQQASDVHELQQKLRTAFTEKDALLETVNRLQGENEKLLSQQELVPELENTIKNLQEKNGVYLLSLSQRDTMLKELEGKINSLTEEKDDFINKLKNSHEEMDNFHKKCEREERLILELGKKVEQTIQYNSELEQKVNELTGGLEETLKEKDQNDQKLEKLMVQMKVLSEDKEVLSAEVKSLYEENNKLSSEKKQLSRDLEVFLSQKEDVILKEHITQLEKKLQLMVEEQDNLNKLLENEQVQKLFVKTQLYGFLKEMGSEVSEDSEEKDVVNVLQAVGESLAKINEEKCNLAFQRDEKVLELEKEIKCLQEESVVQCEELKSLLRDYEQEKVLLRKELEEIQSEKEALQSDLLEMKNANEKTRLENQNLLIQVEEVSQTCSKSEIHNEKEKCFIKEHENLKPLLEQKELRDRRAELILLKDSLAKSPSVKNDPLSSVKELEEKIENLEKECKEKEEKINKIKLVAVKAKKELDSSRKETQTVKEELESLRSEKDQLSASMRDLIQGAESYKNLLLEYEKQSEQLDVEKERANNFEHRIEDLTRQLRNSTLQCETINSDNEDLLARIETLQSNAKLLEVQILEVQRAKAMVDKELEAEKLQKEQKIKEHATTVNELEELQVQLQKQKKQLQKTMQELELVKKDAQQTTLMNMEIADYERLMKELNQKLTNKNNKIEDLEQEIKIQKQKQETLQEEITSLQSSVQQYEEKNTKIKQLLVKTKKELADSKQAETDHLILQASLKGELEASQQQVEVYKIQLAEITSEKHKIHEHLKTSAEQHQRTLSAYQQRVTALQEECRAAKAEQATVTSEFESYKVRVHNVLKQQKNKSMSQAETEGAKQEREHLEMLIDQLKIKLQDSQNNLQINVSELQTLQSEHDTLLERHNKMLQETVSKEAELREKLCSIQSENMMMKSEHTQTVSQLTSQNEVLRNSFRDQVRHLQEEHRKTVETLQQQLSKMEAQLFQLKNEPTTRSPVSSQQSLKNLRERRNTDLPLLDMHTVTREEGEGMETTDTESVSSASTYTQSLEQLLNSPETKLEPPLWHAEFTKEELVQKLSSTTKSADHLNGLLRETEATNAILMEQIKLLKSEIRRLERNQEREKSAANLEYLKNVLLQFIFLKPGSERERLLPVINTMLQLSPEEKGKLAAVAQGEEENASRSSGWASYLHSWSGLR
# UniProt Q8IUX7: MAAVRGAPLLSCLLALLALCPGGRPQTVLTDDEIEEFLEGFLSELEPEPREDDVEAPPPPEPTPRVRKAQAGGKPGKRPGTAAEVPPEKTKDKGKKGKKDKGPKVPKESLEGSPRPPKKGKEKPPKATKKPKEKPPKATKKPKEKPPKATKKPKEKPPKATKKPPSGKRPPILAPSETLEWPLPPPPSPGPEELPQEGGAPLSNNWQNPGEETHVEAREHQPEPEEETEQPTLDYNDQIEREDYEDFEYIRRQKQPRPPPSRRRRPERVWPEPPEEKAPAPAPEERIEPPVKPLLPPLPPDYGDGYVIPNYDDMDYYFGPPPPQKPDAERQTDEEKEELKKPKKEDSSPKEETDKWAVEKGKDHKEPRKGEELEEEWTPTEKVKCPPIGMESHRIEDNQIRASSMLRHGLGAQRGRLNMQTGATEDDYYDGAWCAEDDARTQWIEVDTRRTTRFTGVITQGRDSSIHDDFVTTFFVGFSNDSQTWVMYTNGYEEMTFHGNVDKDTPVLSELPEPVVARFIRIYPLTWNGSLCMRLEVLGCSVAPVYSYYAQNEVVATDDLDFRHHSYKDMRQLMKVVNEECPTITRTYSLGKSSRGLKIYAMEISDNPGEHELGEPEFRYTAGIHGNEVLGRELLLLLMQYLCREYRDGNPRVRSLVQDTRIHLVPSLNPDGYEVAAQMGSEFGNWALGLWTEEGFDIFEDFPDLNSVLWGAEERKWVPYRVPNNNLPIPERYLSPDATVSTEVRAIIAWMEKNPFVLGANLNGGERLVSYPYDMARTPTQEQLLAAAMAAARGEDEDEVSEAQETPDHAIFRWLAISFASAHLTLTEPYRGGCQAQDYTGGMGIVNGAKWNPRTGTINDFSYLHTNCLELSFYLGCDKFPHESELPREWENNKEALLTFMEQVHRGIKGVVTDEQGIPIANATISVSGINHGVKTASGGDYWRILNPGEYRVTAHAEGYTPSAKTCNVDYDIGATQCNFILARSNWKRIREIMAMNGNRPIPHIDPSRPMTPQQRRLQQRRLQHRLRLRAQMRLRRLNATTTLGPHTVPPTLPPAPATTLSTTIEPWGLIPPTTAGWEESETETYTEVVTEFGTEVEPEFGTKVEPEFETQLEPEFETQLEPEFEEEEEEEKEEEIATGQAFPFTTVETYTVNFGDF
# UniProt Q8TEM1: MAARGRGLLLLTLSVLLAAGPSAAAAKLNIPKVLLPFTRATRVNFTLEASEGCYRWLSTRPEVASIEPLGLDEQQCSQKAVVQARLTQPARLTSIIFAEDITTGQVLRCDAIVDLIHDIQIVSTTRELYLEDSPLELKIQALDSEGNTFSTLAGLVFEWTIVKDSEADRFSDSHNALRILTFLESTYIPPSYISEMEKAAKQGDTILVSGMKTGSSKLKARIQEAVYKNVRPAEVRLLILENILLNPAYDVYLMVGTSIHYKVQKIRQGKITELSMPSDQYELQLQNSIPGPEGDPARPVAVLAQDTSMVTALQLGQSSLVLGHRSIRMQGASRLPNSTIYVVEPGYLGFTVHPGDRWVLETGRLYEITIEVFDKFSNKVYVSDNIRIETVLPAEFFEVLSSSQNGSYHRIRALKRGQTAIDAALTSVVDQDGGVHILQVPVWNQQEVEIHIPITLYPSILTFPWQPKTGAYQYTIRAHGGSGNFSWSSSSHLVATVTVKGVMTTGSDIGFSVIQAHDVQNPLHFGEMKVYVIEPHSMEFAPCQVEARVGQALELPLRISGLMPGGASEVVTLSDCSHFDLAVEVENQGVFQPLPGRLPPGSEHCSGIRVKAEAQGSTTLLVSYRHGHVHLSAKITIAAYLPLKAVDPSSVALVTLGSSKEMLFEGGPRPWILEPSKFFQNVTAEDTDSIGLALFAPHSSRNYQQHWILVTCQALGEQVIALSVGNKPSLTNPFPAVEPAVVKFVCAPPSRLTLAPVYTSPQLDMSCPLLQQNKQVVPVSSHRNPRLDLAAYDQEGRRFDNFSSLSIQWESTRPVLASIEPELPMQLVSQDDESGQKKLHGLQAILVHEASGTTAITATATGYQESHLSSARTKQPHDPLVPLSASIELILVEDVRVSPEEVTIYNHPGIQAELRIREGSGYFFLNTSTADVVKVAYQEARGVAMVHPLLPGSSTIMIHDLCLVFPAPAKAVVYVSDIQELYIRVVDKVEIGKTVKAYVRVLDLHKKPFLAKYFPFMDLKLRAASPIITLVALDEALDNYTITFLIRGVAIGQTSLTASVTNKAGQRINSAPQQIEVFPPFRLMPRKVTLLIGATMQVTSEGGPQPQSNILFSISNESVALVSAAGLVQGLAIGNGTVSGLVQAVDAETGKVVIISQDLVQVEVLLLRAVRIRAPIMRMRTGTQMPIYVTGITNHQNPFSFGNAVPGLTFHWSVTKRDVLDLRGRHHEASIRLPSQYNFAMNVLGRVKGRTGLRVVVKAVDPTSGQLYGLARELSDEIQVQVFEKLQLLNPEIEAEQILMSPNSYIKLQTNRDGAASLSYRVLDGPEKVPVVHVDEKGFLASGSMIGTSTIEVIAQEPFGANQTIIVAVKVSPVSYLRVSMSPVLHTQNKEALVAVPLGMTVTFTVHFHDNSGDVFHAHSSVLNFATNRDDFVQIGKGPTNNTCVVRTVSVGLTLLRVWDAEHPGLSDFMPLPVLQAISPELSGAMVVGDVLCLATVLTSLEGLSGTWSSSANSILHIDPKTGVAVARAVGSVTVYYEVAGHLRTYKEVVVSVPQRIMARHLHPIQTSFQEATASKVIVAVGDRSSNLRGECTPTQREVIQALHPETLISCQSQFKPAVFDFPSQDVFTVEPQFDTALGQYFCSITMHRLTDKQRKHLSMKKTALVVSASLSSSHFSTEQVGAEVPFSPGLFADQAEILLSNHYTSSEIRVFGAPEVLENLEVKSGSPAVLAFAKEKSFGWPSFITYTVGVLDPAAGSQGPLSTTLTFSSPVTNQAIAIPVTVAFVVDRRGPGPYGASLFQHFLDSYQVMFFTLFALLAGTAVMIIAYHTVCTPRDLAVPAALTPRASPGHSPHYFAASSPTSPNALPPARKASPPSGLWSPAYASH
# UniProt Q8IWB1: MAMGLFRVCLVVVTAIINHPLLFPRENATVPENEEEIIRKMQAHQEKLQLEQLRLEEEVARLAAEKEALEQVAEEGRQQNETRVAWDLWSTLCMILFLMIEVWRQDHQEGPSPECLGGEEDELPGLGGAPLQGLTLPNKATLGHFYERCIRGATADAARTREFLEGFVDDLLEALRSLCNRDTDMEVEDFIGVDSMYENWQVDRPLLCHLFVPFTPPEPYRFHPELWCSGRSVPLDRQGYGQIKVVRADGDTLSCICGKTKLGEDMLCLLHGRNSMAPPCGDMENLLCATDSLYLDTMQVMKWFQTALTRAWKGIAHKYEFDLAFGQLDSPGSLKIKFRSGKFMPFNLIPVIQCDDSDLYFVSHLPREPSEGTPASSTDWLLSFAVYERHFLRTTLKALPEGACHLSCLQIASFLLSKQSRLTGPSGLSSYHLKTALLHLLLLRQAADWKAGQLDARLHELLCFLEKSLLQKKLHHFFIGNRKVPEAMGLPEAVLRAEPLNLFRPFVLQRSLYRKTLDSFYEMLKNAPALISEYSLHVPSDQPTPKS
# UniProt Q86WV6: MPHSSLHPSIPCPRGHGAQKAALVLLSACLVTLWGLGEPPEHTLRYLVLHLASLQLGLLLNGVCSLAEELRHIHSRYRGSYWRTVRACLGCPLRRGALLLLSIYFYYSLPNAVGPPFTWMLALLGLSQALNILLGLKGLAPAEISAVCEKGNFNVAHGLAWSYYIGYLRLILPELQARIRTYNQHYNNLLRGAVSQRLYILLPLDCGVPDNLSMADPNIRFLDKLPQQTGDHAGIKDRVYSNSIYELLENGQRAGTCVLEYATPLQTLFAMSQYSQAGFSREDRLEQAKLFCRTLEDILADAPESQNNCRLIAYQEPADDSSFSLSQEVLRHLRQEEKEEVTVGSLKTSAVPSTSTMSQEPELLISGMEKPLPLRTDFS
# UniProt Q8N465: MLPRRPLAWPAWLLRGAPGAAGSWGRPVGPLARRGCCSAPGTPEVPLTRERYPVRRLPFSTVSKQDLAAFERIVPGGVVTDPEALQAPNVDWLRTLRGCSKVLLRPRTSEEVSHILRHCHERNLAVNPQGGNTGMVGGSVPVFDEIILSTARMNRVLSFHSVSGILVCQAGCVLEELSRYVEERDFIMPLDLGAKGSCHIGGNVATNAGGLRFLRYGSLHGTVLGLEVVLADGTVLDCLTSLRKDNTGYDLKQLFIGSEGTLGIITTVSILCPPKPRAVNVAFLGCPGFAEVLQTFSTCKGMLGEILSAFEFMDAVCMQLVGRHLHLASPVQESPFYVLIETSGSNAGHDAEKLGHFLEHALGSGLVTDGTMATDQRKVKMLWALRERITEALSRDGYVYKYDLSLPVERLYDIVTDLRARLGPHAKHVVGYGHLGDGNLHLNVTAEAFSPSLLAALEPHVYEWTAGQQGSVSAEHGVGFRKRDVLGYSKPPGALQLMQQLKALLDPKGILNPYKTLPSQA
# ± gives the standard deviation of the averaged measurements. The list shows a part of the results.
# Compound: Nc1nc2c(ncn2[C@@H]2O[C@H](COP(=O)(O)OP(=O)(O)OP(=O)(O)O)[C@@H](O)[C@H]2O)c(=O)[nH]1 [guanosine triphosphate]
# Assay: NP40-soluble protein abundance relative to vehicle (solubility fold change) (ratio); higher = more soluble protein in presence of GTP
# Method in brief: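 Values are fold changes against the detergent-processed vehicle, based on vsn-normalised intensities. Jurkat crude lysate was treated at eight concentrations from 0.1 to 10 mM (10 min at room temperature, then 3 min at 37 °C), solubilised with 0.8% NP40 and benzonase, ultracentrifuged and analysed by TMT-labelled LC-MS/MS over three independent experiments.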
Target,NP40-soluble protein abundance (concentration: 0.1mM),NP40-soluble protein abundance (concentration: 0.5mM),NP40-soluble protein abundance (concentration: 1mM),NP40-soluble protein abundance (concentration: 2mM),NP40-soluble protein abundance (concentration: 4mM),NP40-soluble protein abundance (concentration: 6mM),NP40-soluble protein abundance (concentration: 8mM),NP40-soluble protein abundance (concentration: 10mM)
PCYOX1L (UniProt Q8NBM8),0.998 ± 0.043,1.03 ± 0.08,0.943 ± 0.091,0.939 ± 0.073,0.903 ± 0.089,0.919 ± 0.083,0.898 ± 0.036,0.888 ± 0.062
UniProt Q8NBN3 and related entries,0.951 ± 0.097,0.941 ± 0.12,0.951 ± 0.098,0.911 ± 0.13,0.893 ± 0.12,0.872 ± 0.097,0.884 ± 0.14,0.918 ± 0.12
ZNRF2 (UniProt Q8NHG8),0.884 ± 0.11,0.799 ± 0.12,0.902 ± 0.12,0.902 ± 0.16,0.924 ± 0.11,0.879 ± 0.13,0.924 ± 0.093,0.952 ± 0.14
UniProt Q8IXQ6 and related entries,1.01 ± 0.25,1.05 ± 0.2,1.01 ± 0.12,1.09 ± 0.22,1.06 ± 0.2,1.03 ± 0.18,0.981 ± 0.28,0.95 ± 0.043
CMAS (UniProt Q8NFW8),1.03 ± 0.029,1.05 ± 0.048,1.041 ± 0.01,1.1 ± 0.041,1.16 ± 0.052,1.18 ± 0.039,1.2 ± 0.038,1.21 ± 0.06
ZDHHC13 (UniProt Q8IUH4),1.09 ± 0.064,1.06 ± 0.086,1.01 ± 0.053,1.01 ± 0.08,0.993 ± 0.056,0.964 ± 0.091,0.982 ± 0.075,0.939 ± 0.082
GCC2 (UniProt Q8IWJ2),0.972 ± 0.04,0.957 ± 0.043,0.998 ± 0.054,0.967 ± 0.078,0.96 ± 0.078,0.941 ± 0.06,0.993 ± 0.019,0.953 ± 0.05
UBA3 (UniProt Q8TBC4),1.03 ± 0.018,1.01 ± 0.02,0.9609 ± 0.0082,0.956 ± 0.053,0.967 ± 0.017,0.943 ± 0.032,0.914 ± 0.029,0.927 ± 0.052
RFLNB (UniProt Q8N5W9),1.03 ± 0.09,1 ± 0.11,1.15 ± 0.21,1.06 ± 0.15,1.12 ± 0.091,1.11 ± 0.18,1.12 ± 0.036,1.2 ± 0.12
NANP (UniProt Q8TBE9),1.07 ± 0.15,0.981 ± 0.11,0.954 ± 0.14,0.982 ± 0.16,0.904 ± 0.12,0.877 ± 0.14,0.891 ± 0.2,0.861 ± 0.15
MICALL1 (UniProt Q8N3F8),1.02 ± 0.066,0.97 ± 0.063,0.962 ± 0.088,0.958 ± 0.1,0.92 ± 0.095,0.931 ± 0.13,0.922 ± 0.065,0.956 ± 0.11
ZC3H15 (UniProt Q8WU90),0.985 ± 0.043,0.968 ± 0.042,0.983 ± 0.06,0.936 ± 0.072,0.955 ± 0.065,0.953 ± 0.076,0.993 ± 0.053,0.967 ± 0.067
UniProt Q8IUX7,1.09 ± 0.12,1.14 ± 0.15,1.16 ± 0.21,1.19 ± 0.11,1.095 ± 0.002,1.11 ± 0.12,1.15 ± 0.1,1.16 ± 0.12
NUP210 (UniProt Q8TEM1),0.983 ± 0.023,0.9845 ± 0.0064,0.957 ± 0.021,0.969 ± 0.019,0.9726 ± 0.009,0.977 ± 0.019,0.976 ± 0.013,1.006 ± 0.0064
UniProt Q8N684 and related entries,1.02 ± 0.054,1.15 ± 0.05,1.27 ± 0.051,1.34 ± 0.12,1.45 ± 0.14,1.51 ± 0.19,1.57 ± 0.24,1.53 ± 0.23
UniProt Q8N5U6 and related entries,1.02 ± 0.12,1.04 ± 0.099,1.02 ± 0.065,1.06 ± 0.012,1.08 ± 0.14,1.08 ± 0.071,1.1 ± 0.11,1.12 ± 0.089
UniProt Q8IXJ6 and related entries,0.995 ± 0.044,0.978 ± 0.047,0.909 ± 0.068,0.92 ± 0.057,0.93 ± 0.053,0.916 ± 0.071,0.916 ± 0.05,0.955 ± 0.071
UniProt Q86X55 and related entries,1.04 ± 0.098,1.04 ± 0.11,0.975 ± 0.062,1 ± 0.13,1.01 ± 0.11,0.981 ± 0.075,0.919 ± 0.032,0.906 ± 0.078
UniProt Q8TDQ7 and related entries,1.1 ± 0.09,1.1 ± 0.062,0.948 ± 0.035,1.01 ± 0.097,0.997 ± 0.089,0.97 ± 0.049,0.91 ± 0.068,0.939 ± 0.14
ITPRIP (UniProt Q8IWB1),1.06 ± 0.13,1.07 ± 0.15,0.992 ± 0.063,1.05 ± 0.17,0.991 ± 0.086,1.02 ± 0.14,0.958 ± 0.12,0.95 ± 0.1
UniProt Q8IWF6,1.04 ± 0.04,0.968 ± 0.062,0.992 ± 0.056,0.934 ± 0.022,0.984 ± 0.08,0.94 ± 0.024,0.943 ± 0.043,0.896 ± 0.083
UniProt Q8N6R0 and related entries,1.1 ± 0.087,1.1 ± 0.12,1.04 ± 0.09,1.05 ± 0.11,1.05 ± 0.049,1.03 ± 0.1,1.02 ± 0.045,0.997 ± 0.056
UniProt Q8N6G5 and related entries,0.847 ± 0.047,1.05 ± 0.073,0.8819 ± 0.0086,0.965 ± 0.026,0.871 ± 0.024,1.01 ± 0.086,0.894 ± 0.016,0.99 ± 0.051
TMEM173 (UniProt Q86WV6),0.843 ± 0.015,0.97 ± 0.055,0.869 ± 0.064,0.918 ± 0.084,0.852 ± 0.066,0.904 ± 0.057,0.832 ± 0.026,0.928 ± 0.042
D2HGDH (UniProt Q8N465),0.973 ± 0.066,0.956 ± 0.051,0.914 ± 0.096,0.968 ± 0.024,0.972 ± 0.034,0.94 ± 0.052,0.923 ± 0.049,0.852 ± 0.096
UniProt Q8TBB5 and related entries,1.01 ± 0.035,1.06 ± 0.028,1.01 ± 0.016,1 ± 0.054,0.974 ± 0.022,0.989 ± 0.052,1.02 ± 0.056,0.977 ± 0.041
UniProt Q8N5N7 and related entries,1.16 ± 0.2,1.08 ± 0.17,1.41 ± 0.4,1.41 ± 0.36,1.43 ± 0.38,1.37 ± 0.35,1.29 ± 0.32,1.33 ± 0.41
UniProt Q8TAT6 and related entries,1.01 ± 0.04,1 ± 0.05,0.926 ± 0.014,0.93 ± 0.054,0.919 ± 0.036,0.921 ± 0.037,0.893 ± 0.02,0.852 ± 0.042

# Record cards (already shown). Values in the order: NP40-soluble protein abundance (concentration: 0.1mM)	NP40-soluble protein abundance (concentration: 0.5mM)	NP40-soluble protein abundance (concentration: 1mM)	NP40-soluble protein abundance (concentration: 2mM)	NP40-soluble protein abundance (concentration: 4mM)	NP40-soluble protein abundance (concentration: 6mM)	NP40-soluble protein abundance (concentration: 8mM)	NP40-soluble protein abundance (concentration: 10mM)
# NUP210 (UniProt Q8TEM1) reads 0.983 ± 0.023	0.9845 ± 0.0064	0.957 ± 0.021	0.969 ± 0.019	0.9726 ± 0.009	0.977 ± 0.019	0.976 ± 0.013	1.006 ± 0.0064
# ZDHHC13 (UniProt Q8IUH4) reads 1.09 ± 0.064	1.06 ± 0.086	1.01 ± 0.053	1.01 ± 0.08	0.993 ± 0.056	0.964 ± 0.091	0.982 ± 0.075	0.939 ± 0.082
